From patent US20090275727A1 (MIMETICA PTY LIMITED, priority 1998, published 2009)

Test: general procedure: Fmoc solid-phase peptide synthesis; Rink amide MBHA; HBTU/DIEA; HATU/DIEA for the pentapeptide helix mimetic building block
Settings: whole synthesis

Substance: FLPLIGRGLSGLL-NH2
- crude mass (scale 0.25 mmol): 240 mg
- isolated mass (scale 0.25 mmol): 4.4 mg

Substance: FLPLIGRVLSGIL-NH2
- crude mass (scale 0.25 mmol): 65 mg
- isolated mass (scale 0.25 mmol): 6.4 mg

Substance: GWTLNSAGYLLGPHAV-NH2
- crude mass (scale 0.18 mmol): 34 mg
- isolated mass (scale 0.18 mmol): 2.3 mg
